Data as given in PubChem BioAssay AID1508597 (Cure First, 2020).

Purpose: 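Survival screen with siRNA in ovarian cancer cells derived from patients, with or without rucaparib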 (primary screen)
Cells: human ovarian carcinoma lines grown from tumours: OCI-P5x (papillary serous) and OCI-C5x (clear cell)
Reagents: siRNA pool against human genes, 1.25 pmol siRNA per well
Timing: 72 h or 96 h, depending on the cell culture
Challenge: rucaparib 20 µM (about IC30) or vehicle, present until read-out
Measurement: 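Luminescent ATP-based viability assay read 72 or 96 h after transfection, depending on culture, given as normalised percent viability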
Reading the numbers: viability, normalised: higher = more viable cells remaining
Active means: 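a well counts as a hit if its normalised viability is under 80 percent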
Calls: active = viability under 80%; inactive = viability 80% or more
This is one part, drawn at random, of about 2,100 reagents tested. 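Calls flag viability under 80% in either arm, not effects specific to rucaparib; the reference for percent is not stated.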 Entries without a mark were called inactive. The record does not give: the 100% reference.

"viability, normalised (%)",gene,rucaparib or vehicle,cell line,technical replicate
33.1 (active),HM13,Rucaparib,OCI-C5x (clear cell),1
37 (active),HM13,Rucaparib,OCI-C5x (clear cell),2
34.1 (active),HM13,Rucaparib,OCI-C5x (clear cell),3
76.7 (active),HM13,Rucaparib,OCI-P5x (serous),1
60.2 (active),HM13,Rucaparib,OCI-P5x (serous),2
80,HM13,Rucaparib,OCI-P5x (serous),3
45 (active),HM13,Vehicle,OCI-C5x (clear cell),1
50.1 (active),HM13,Vehicle,OCI-C5x (clear cell),2
58.6 (active),HM13,Vehicle,OCI-C5x (clear cell),3
86,HM13,Vehicle,OCI-P5x (serous),1
99,HM13,Vehicle,OCI-P5x (serous),2
69.1 (active),HM13,Vehicle,OCI-P5x (serous),3
55.1 (active),ING5,Rucaparib,OCI-C5x (clear cell),1
40.9 (active),ING5,Rucaparib,OCI-C5x (clear cell),2
43.8 (active),ING5,Rucaparib,OCI-C5x (clear cell),3
45 (active),ING5,Rucaparib,OCI-P5x (serous),1
56.4 (active),ING5,Rucaparib,OCI-P5x (serous),2
68.2 (active),ING5,Rucaparib,OCI-P5x (serous),3
80.6,ING5,Vehicle,OCI-C5x (clear cell),1
35 (active),ING5,Vehicle,OCI-C5x (clear cell),2
80.4,ING5,Vehicle,OCI-C5x (clear cell),3
68 (active),ING5,Vehicle,OCI-P5x (serous),1
80.2,ING5,Vehicle,OCI-P5x (serous),2
70.2 (active),ING5,Vehicle,OCI-P5x (serous),3

Copied from the listing for reference:
"viability, normalised (%)",gene,rucaparib or vehicle,cell line,technical replicate
56.4 (active),ING5,Rucaparib,OCI-P5x (serous),2
68.2 (active),ING5,Rucaparib,OCI-P5x (serous),3
80.6,ING5,Vehicle,OCI-C5x (clear cell),1
35 (active),ING5,Vehicle,OCI-C5x (clear cell),2
80.4,ING5,Vehicle,OCI-C5x (clear cell),3
68 (active),ING5,Vehicle,OCI-P5x (serous),1
80.2,ING5,Vehicle,OCI-P5x (serous),2
70.2 (active),ING5,Vehicle,OCI-P5x (serous),3

More entries follow:
"viability, normalised (%)",gene,rucaparib or vehicle,cell line,technical replicate
49.2 (active),CLOCK,Rucaparib,OCI-C5x (clear cell),1
42.2 (active),CLOCK,Rucaparib,OCI-C5x (clear cell),2
58.6 (active),CLOCK,Rucaparib,OCI-C5x (clear cell),3
53.4 (active),CLOCK,Rucaparib,OCI-P5x (serous),1
49.4 (active),CLOCK,Rucaparib,OCI-P5x (serous),2
48.9 (active),CLOCK,Rucaparib,OCI-P5x (serous),3
37.8 (active),CLOCK,Vehicle,OCI-C5x (clear cell),1
57.2 (active),CLOCK,Vehicle,OCI-C5x (clear cell),2
51.6 (active),CLOCK,Vehicle,OCI-C5x (clear cell),3
58.1 (active),CLOCK,Vehicle,OCI-P5x (serous),1
70 (active),CLOCK,Vehicle,OCI-P5x (serous),2
65 (active),CLOCK,Vehicle,OCI-P5x (serous),3
63.5 (active),RIF1,Rucaparib,OCI-C5x (clear cell),1
64.6 (active),RIF1,Rucaparib,OCI-C5x (clear cell),2
79.9 (active),RIF1,Rucaparib,OCI-C5x (clear cell),3
70.8 (active),RIF1,Rucaparib,OCI-P5x (serous),1
83.9,RIF1,Rucaparib,OCI-P5x (serous),2
90.7,RIF1,Rucaparib,OCI-P5x (serous),3
60.7 (active),RIF1,Vehicle,OCI-C5x (clear cell),1
55 (active),RIF1,Vehicle,OCI-C5x (clear cell),2
49.2 (active),RIF1,Vehicle,OCI-C5x (clear cell),3
71.5 (active),RIF1,Vehicle,OCI-P5x (serous),1
78.2 (active),RIF1,Vehicle,OCI-P5x (serous),2
74.1 (active),RIF1,Vehicle,OCI-P5x (serous),3
36.1 (active),CRKL,Rucaparib,OCI-C5x (clear cell),1
35.9 (active),CRKL,Rucaparib,OCI-C5x (clear cell),2
66.3 (active),CRKL,Rucaparib,OCI-C5x (clear cell),3
69.6 (active),CRKL,Rucaparib,OCI-P5x (serous),1
81.7,CRKL,Rucaparib,OCI-P5x (serous),2
49.6 (active),CRKL,Rucaparib,OCI-P5x (serous),3
60.7 (active),CRKL,Vehicle,OCI-C5x (clear cell),1
48.7 (active),CRKL,Vehicle,OCI-C5x (clear cell),2
39.3 (active),CRKL,Vehicle,OCI-C5x (clear cell),3
86.6,CRKL,Vehicle,OCI-P5x (serous),1
75.1 (active),CRKL,Vehicle,OCI-P5x (serous),2
79 (active),CRKL,Vehicle,OCI-P5x (serous),3
